# Some of the results follow. Shown are side measurements of this screen, not its main read-out; they come without a call. Most of these compounds were active or inconclusive in the main read-out, so they are no random draw. Words in brackets tell the shape of the fitted curve; partial curves, single points and poor fits give uncertain potencies.
# Assay: qHTS Assay for Modulators of Lamin A Splicing
# Conditions: HeLa LMNA splicing GFP/RFP minigene ratio, 48 h
# Procedure, shortened: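 S3 HeLa cells stably expressing lamin A-EGFP splicing minigene plus DsRed2, 600 cells/well, 48 h compound exposure at 37C. Laser-scanning cytometry; analysed as GFP (500-530 nm)/RFP (575-640 nm) total intensity ratio; 0.5% DMSO vehicle.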
# [1] = measured here: GFP splicing reporter channel
# [2] = measured here: RFP viability control channel
Structure (SMILES),AC50 [1],AC50 [2]
Cc1oc2ccc(O)cc2c1C(=O)c1ccc([N+](=O)[O-])cc1,"14.1 µM [rising, partial curve]","12.6 µM [rising, partial curve]"
OCC1OC(n2cnc3c(Cl)nc(Cl)nc32)C(O)C1O (configuration not stated),"11.2 µM [falling, partial curve]","3.55 µM [falling, partial curve]"
COc1ccc(OC)c(NC(=O)c2c(C)oc3ncnc(N4CCOCC4)c23)c1,–,"35.5 µM [rising, single point]"
COc1cc2c(cc1OC)CN(c1nc(CN3CCOCC3)nc3sc4c(c13)CCC(C)C4)CC2 (configuration not stated),–,"14.1 µM [rising, single point]"
CC(=O)NC1=NN(C(C)=O)C(C)(c2cccc([N+](=O)[O-])c2)S1 (configuration not stated),–,"0.1 µM [falling, full curve, poor fit]"
CN(C)S(=O)(=O)c1ccc2oc(SCC(=O)Nc3ccccc3F)nc2c1,"0.316 µM [rising, full curve, poor fit]","0.00355 µM [rising, full curve, poor fit]"
COc1ccc(/C=C2/SC(=O)N(CCCCCC(=O)Nc3ccccc3C(=O)O)C2=S)cc1,–,"14.1 µM [rising, partial curve, poor fit]"
CC(C)c1ccc(CNC(=O)CSCC(=O)Nc2ccc3ccccc3c2)cc1,–,"35.5 µM [rising, single point]"
NC(=O)C1CCN(C(=S)NCCc2ccccc2)CC1,"0.0398 µM [falling, full curve, poor fit]",–
CC(Sc1nc2c([nH]c3ccccc32)c(=O)n1-c1ccccc1)c1ccccc1 (configuration not stated),"35.5 µM [falling, single point]","35.5 µM [falling, single point]"
CC1(C)C(=O)OC(C(=O)c2ccc(Cl)cc2)C(C)(C)C1=O (configuration not stated),–,"22.4 µM [falling, partial curve, poor fit]"
CCOCc1nnc(NC(=O)c2ccc(NC(C)=O)cc2)s1,"17.8 µM [rising, single point]",–
Cc1ccc(-c2cc(C(=O)NC3=NCCS3)c3cc(Br)ccc3n2)o1,–,"17.8 µM [rising, single point]"
CCCCNC(=O)c1sc2ncnc(N3CCc4ccccc4C3)c2c1C,"12.6 µM [rising, single point]","15.8 µM [rising, single point]"
CCC1CN(C(=O)N2CCC(C(=O)N3CCN(c4cc(C)ccc4C)CC3)CC2)c2ccccc2O1 (configuration not stated),"0.0158 µM [rising, full curve]",–
CC(=O)Cc1nsc(Nc2cccc(C)c2)n1,"0.631 µM [falling, full curve, poor fit]","0.794 µM [falling, full curve, poor fit]"
CC1(C)Cc2cccc(OCC(=O)N3CCN(c4ccc([N+](=O)[O-])cc4)CC3)c2O1,–,"22.4 µM [rising, single point]"
COc1ccc(-c2cc3ccc(O)c(CN4CCCC4)c3oc2=O)cc1OC,"0.708 µM [rising, single point]",–

Structure (SMILES),AC50 [1],AC50 [2]
COc1ccc(OC)c(S(=O)(=O)NCCOC23CC4CC(CC(C4)C2)C3)c1,"15.8 µM [rising, single point]","25.1 µM [rising, single point]"
CC(=O)Nc1ccc(SCC(=O)Nc2cc(C(C)(C)C)nn2-c2ccccc2)cc1,–,"22.4 µM [rising, single point]"
CCOC(=O)C1=C(Cc2ccc(F)cc2)C(=O)c2ccccc2C1=O,"35.5 µM [falling, single point]",–
CCOC(=O)c1c(NC(=O)CC2SC(N)=NC2=O)sc(C)c1C (configuration not stated),"3.55 µM [falling, partial curve, poor fit]",–
Cc1ccc(CN2CCN(Cc3cccn3-c3ccccn3)CC2CCO)cc1 (configuration not stated),"0.398 µM [falling, partial curve]","0.251 µM [falling, full curve]"
Brc1ccc(CSc2ncnc3nc[nH]c23)cc1,–,"35.5 µM [rising, single point]"
Cc1ccc2nc(N(Cc3cccnc3)C(=O)CCOc3ccccc3)sc2c1,–,"10 µM [rising, single point]"
O=C(/C(=C/O)N=Nc1cccc(C(F)(F)F)c1)c1ccccc1,"0.0891 µM [rising, full curve, poor fit]","3.98 µM [rising, partial curve]"
CCc1nnc(NC(=O)c2ccc(-c3ccc(F)cc3)o2)s1,–,"15.8 µM [rising, single point]"
Cc1ccc(C)c(NC(=S)NCC(c2cccnc2)N2CCOCC2)c1 (configuration not stated),–,"5.62 µM [rising, single point]"
CCOC(=O)C1=C(C)OC(N)=C(C(=O)OCC)C1c1ccncc1 (configuration not stated),"31.6 µM [rising, single point]",–
CCc1ccc(NC(=O)CSc2nc3c([nH]c4ccccc43)c(=O)n2-c2cccc(OC)c2)cc1,–,"0.02 µM [falling, full curve, poor fit]"
COc1ccc(C(c2nnnn2C(C)(C)C)N2CCN(c3nc4ccccc4s3)CC2)cc1OC (configuration not stated),"8.91 µM [rising, partial curve]","14.1 µM [rising, partial curve]"
CCCCCn1c(=O)c2c(nc3n2CCN3c2ccc(Br)cc2)n(C)c1=O,–,"0.00501 µM [falling, full curve, poor fit]"
COc1cc(C)ccc1OCCSc1nc2ccc(NC(C)=O)cc2s1,–,"22.4 µM [falling, single point]"
CC(C)(C)OC(=O)NCCc1nnc(SCc2c(Cl)cccc2Cl)o1,–,"12.6 µM [rising, single point]"
Cc1ccc(-n2[nH]c(C)c(/C=N/Nc3ccc([N+](=O)[O-])cc3[N+](=O)[O-])c2=O)cc1,–,"17.8 µM [rising, partial curve, poor fit]"
Cc1cccc(NC(=O)c2ccccc2NC(=O)C2CCCCC2)c1C,"8.91 µM [falling, single point]","15.8 µM [falling, single point]"

# Individual results from the entries so far.
# Entry for Brc1ccc(CSc2ncnc3nc[nH]c23)cc1 under AC50 [2]: 35.5 µM [rising, single point]
# Entry for CCOC(=O)C1=C(Cc2ccc(F)cc2)C(=O)c2ccccc2C1=O under AC50 [1]: 35.5 µM [falling, single point]

# Reference: PubChem BioAssay AID1487 (National Center for Advancing Translational Sciences (NCATS), 2009)
